According to patent US20080261923A1 (priority 2004, published 2008):

Legend:
[1] = general procedure: Fmoc solid-phase peptide synthesis; Rink amide MBHA resin; HBTU/HOBt; HATU/HOAt for the dipeptide isostere building block; conditions: whole synthesis, scale 0.10 mmol
[2] = general procedure: Fmoc solid-phase peptide synthesis; Rink amide MBHA resin (0.64 mmol/g); HBTU/HOBt; HATU/HOAt for the dipeptide isostere building block; conditions: whole synthesis

## Ac-Phe-Tyr-pSerΨ[(Z)CH═C]-Pro-Arg-NH2
[1]
  crude mass: 80 mg
[2]
  isolated mass: 20 mg
[2]; scale of the general procedure 0.10 mmol
  isolated yield: 72%
